PubChem BioAssay AID1259405 | NCATS | 2018
The deposit covers about 50,000 reagents; below is a random part of them. In the full data, about 4,000 (8%) got an active call. 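Mouse siRNA library applied to hamster cells; one well for each siRNA.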 Reagents against one gene are numbered here.

Purpose: 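Knock-downs that lift recombinant protein yield in hamster ovary cells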 (primary screen)
System: Chinese hamster CHO-K1 ovary cells with stable secreted eGFP expression
Knock-down reagent: single siRNA against mouse genes, 0.8 pmol siRNA per well (2 µl of 400 nM stock)
Duration: 3 days
Detection: 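Percent of the per-plate non-targeting control median for intracellular GFP per well by laser scanning cytometry and for cell viability by ATP luminescence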
Reading the numbers: GFP, % of control: higher = more GFP per well, higher productivity; viability (ATP), % of control: higher = more viable cells (more ATP)
Call rule: 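Called active when intracellular GFP, relative to negative control, is at or above 120%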

The opening 5 records, ahead of the listing:
Defb10 (defensin beta 10) #1 → GFP, % of control: 106; viability (ATP), % of control: 79.5; activity call: inactive
Defb10 (defensin beta 10) #2 → GFP, % of control: 77.8; viability (ATP), % of control: 76.2; activity call: inactive
Defb10 (defensin beta 10) #3 → GFP, % of control: 154; viability (ATP), % of control: 63.7; activity call: active
Or4f7 (olfactory receptor family 4 subfamily F member 7) #1 → GFP, % of control: 130; viability (ATP), % of control: 93.6; activity call: active
Or4f7 (olfactory receptor family 4 subfamily F member 7) #2 → GFP, % of control: 113; viability (ATP), % of control: 51.4; activity call: inactive

The listing, repeating the preview:
Defb10 (defensin beta 10) #1 → GFP, % of control: 106; viability (ATP), % of control: 79.5; activity call: inactive
Defb10 (defensin beta 10) #2 → GFP, % of control: 77.8; viability (ATP), % of control: 76.2; activity call: inactive
Defb10 (defensin beta 10) #3 → GFP, % of control: 154; viability (ATP), % of control: 63.7; activity call: active
Or4f7 (olfactory receptor family 4 subfamily F member 7) #1 → GFP, % of control: 130; viability (ATP), % of control: 93.6; activity call: active
Or4f7 (olfactory receptor family 4 subfamily F member 7) #2 → GFP, % of control: 113; viability (ATP), % of control: 51.4; activity call: inactive
Or4f7 (olfactory receptor family 4 subfamily F member 7) #3 → GFP, % of control: 55.8; viability (ATP), % of control: 65.2; activity call: inactive
Mgat4d (MGAT4 family, member D) #1 → GFP, % of control: 120; viability (ATP), % of control: 75.4; activity call: active
Mgat4d (MGAT4 family, member D) #2 → GFP, % of control: 71; viability (ATP), % of control: 67.2; activity call: inactive
Mgat4d (MGAT4 family, member D) #3 → GFP, % of control: 35.9; viability (ATP), % of control: 26.7; activity call: inactive
Eif2ak1 (eukaryotic translation initiation factor 2 alpha kinase 1) → GFP, % of control: 78.9; viability (ATP), % of control: 73.8; activity call: inactive
Usp14 (ubiquitin specific peptidase 14) #1 → GFP, % of control: 83.3; viability (ATP), % of control: 99.6; activity call: inactive
Usp14 (ubiquitin specific peptidase 14) #2 → GFP, % of control: 66; viability (ATP), % of control: 69.1; activity call: inactive
Usp14 (ubiquitin specific peptidase 14) #3 → GFP, % of control: 94.7; viability (ATP), % of control: 83; activity call: inactive
Pelp1 (proline, glutamic acid and leucine rich protein 1) #1 → GFP, % of control: 106; viability (ATP), % of control: 79; activity call: inactive
Pelp1 (proline, glutamic acid and leucine rich protein 1) #2 → GFP, % of control: 99.6; viability (ATP), % of control: 82.6; activity call: inactive
Pelp1 (proline, glutamic acid and leucine rich protein 1) #3 → GFP, % of control: 73.2; viability (ATP), % of control: 56.5; activity call: inactive
Or6n2 (olfactory receptor family 6 subfamily N member 2) #1 → GFP, % of control: 58.3; viability (ATP), % of control: 50; activity call: inactive
Or6n2 (olfactory receptor family 6 subfamily N member 2) #2 → GFP, % of control: 39.7; viability (ATP), % of control: 81.6; activity call: inactive
Or6n2 (olfactory receptor family 6 subfamily N member 2) #3 → GFP, % of control: 37.1; viability (ATP), % of control: 41.9; activity call: inactive
Gpn1 (GPN-loop GTPase 1) #1 → GFP, % of control: 81.4; viability (ATP), % of control: 90.3; activity call: inactive
Gpn1 (GPN-loop GTPase 1) #2 → GFP, % of control: 98.2; viability (ATP), % of control: 105; activity call: inactive
Spink10 (serine peptidase inhibitor, Kazal type 10) #1 → GFP, % of control: 104; viability (ATP), % of control: 53.8; activity call: inactive
Spink10 (serine peptidase inhibitor, Kazal type 10) #2 → GFP, % of control: 47; viability (ATP), % of control: 55.2; activity call: inactive
Spink10 (serine peptidase inhibitor, Kazal type 10) #3 → GFP, % of control: 83.8; viability (ATP), % of control: 101; activity call: inactive
Ap1s1 (adaptor protein complex AP-1, sigma 1) #1 → GFP, % of control: 96.1; viability (ATP), % of control: 126; activity call: inactive
Ap1s1 (adaptor protein complex AP-1, sigma 1) #2 → GFP, % of control: 95.7; viability (ATP), % of control: 88.2; activity call: inactive
Slc25a47 #1 → GFP, % of control: 82.9; viability (ATP), % of control: 91.5; activity call: inactive
Slc25a47 #2 → GFP, % of control: 107; viability (ATP), % of control: 92.3; activity call: inactive
Slc25a47 #3 → GFP, % of control: 135; viability (ATP), % of control: 79; activity call: active
2510009E07Rik (RIKEN cDNA 2510009E07 gene) #1 → GFP, % of control: 45.8; viability (ATP), % of control: 77.7; activity call: inactive
2510009E07Rik (RIKEN cDNA 2510009E07 gene) #2 → GFP, % of control: 57.6; viability (ATP), % of control: 72.7; activity call: inactive
2510009E07Rik (RIKEN cDNA 2510009E07 gene) #3 → GFP, % of control: 52.3; viability (ATP), % of control: 60.6; activity call: inactive
Ifi47 (interferon gamma inducible protein 47) #1 → GFP, % of control: 41; viability (ATP), % of control: 69.7; activity call: inactive
Ifi47 (interferon gamma inducible protein 47) #2 → GFP, % of control: 65.7; viability (ATP), % of control: 84.5; activity call: inactive
Ifi47 (interferon gamma inducible protein 47) #3 → GFP, % of control: 57.7; viability (ATP), % of control: 55.3; activity call: inactive
Or8g23 (olfactory receptor family 8 subfamily G member 23) #1 → GFP, % of control: 99.9; viability (ATP), % of control: 73.2; activity call: inactive
Or8g23 (olfactory receptor family 8 subfamily G member 23) #2 → GFP, % of control: 39.4; viability (ATP), % of control: 51.1; activity call: inactive
Or8g23 (olfactory receptor family 8 subfamily G member 23) #3 → GFP, % of control: 74.6; viability (ATP), % of control: 78; activity call: inactive
Sybu (syntabulin (syntaxin-interacting)) #1 → GFP, % of control: 99.5; viability (ATP), % of control: 97.4; activity call: inactive
Sybu (syntabulin (syntaxin-interacting)) #2 → GFP, % of control: 78.1; viability (ATP), % of control: 81.7; activity call: inactive
Sybu (syntabulin (syntaxin-interacting)) #3 → GFP, % of control: 93.5; viability (ATP), % of control: 99.9; activity call: inactive
